# Measurements taken from the supplement of paper PMC12067093, “Discovery and optimisation of a covalent ligand for TRIM25 and its application to targeted protein ubiquitination” (Chemical Science, 2025).
# The chains behind the UniProt entries cited, without tags or fusion partners. Where a name states a change or a piece, a line headed by the entry shows the natural chain unless it says otherwise.
# UniProt P48506: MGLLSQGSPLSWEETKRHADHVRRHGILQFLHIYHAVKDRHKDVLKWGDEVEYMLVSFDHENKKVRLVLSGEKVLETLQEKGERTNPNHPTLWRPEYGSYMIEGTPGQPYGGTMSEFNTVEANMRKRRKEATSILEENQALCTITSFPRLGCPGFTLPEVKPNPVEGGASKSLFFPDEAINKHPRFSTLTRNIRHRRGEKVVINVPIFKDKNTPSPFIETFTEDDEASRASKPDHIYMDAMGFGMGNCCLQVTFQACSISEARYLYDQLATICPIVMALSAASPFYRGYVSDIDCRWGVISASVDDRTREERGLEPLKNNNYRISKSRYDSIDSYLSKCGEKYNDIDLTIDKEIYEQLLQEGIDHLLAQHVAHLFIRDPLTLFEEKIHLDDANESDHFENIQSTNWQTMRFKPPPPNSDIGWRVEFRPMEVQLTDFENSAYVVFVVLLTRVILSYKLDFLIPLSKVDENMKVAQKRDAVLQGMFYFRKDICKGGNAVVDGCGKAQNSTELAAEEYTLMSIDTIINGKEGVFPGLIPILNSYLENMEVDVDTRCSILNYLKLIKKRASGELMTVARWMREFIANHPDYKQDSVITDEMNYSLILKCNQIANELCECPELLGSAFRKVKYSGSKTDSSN
# UniProt Q96RP9: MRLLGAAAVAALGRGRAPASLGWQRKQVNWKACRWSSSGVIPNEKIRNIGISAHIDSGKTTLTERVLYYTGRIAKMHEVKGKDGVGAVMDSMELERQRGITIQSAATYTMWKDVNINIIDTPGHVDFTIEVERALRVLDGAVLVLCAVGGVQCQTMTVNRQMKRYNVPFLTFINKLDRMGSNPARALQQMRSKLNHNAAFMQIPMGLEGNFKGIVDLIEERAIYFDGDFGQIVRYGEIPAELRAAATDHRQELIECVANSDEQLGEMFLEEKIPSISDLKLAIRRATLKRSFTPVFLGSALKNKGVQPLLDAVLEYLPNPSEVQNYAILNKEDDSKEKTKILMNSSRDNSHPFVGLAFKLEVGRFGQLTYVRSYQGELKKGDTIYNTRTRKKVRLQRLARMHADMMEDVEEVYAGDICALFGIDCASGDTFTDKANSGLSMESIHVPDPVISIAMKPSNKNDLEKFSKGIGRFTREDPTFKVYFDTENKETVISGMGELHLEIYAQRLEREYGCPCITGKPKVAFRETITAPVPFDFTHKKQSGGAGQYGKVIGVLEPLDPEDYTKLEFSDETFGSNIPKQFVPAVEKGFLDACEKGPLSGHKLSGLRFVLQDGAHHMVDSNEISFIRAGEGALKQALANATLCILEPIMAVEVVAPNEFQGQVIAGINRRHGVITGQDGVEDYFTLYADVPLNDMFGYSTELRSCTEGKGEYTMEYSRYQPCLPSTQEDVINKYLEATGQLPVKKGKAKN
# UniProt Q10472: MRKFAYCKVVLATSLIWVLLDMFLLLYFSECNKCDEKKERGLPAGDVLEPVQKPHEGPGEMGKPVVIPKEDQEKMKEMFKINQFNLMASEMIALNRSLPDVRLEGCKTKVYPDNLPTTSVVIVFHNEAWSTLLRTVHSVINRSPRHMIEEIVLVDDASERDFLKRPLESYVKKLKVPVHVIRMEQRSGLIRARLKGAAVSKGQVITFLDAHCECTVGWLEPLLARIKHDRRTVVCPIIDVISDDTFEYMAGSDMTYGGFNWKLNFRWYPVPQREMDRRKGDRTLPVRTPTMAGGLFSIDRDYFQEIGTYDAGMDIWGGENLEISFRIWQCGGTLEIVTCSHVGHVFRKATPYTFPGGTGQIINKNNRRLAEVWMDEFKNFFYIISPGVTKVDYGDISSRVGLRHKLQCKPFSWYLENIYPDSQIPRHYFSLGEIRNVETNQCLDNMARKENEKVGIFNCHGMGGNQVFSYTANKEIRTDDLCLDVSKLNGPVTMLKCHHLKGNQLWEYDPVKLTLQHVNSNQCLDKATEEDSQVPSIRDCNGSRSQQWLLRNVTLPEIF
# UniProt Q92538, whole entry, looked up: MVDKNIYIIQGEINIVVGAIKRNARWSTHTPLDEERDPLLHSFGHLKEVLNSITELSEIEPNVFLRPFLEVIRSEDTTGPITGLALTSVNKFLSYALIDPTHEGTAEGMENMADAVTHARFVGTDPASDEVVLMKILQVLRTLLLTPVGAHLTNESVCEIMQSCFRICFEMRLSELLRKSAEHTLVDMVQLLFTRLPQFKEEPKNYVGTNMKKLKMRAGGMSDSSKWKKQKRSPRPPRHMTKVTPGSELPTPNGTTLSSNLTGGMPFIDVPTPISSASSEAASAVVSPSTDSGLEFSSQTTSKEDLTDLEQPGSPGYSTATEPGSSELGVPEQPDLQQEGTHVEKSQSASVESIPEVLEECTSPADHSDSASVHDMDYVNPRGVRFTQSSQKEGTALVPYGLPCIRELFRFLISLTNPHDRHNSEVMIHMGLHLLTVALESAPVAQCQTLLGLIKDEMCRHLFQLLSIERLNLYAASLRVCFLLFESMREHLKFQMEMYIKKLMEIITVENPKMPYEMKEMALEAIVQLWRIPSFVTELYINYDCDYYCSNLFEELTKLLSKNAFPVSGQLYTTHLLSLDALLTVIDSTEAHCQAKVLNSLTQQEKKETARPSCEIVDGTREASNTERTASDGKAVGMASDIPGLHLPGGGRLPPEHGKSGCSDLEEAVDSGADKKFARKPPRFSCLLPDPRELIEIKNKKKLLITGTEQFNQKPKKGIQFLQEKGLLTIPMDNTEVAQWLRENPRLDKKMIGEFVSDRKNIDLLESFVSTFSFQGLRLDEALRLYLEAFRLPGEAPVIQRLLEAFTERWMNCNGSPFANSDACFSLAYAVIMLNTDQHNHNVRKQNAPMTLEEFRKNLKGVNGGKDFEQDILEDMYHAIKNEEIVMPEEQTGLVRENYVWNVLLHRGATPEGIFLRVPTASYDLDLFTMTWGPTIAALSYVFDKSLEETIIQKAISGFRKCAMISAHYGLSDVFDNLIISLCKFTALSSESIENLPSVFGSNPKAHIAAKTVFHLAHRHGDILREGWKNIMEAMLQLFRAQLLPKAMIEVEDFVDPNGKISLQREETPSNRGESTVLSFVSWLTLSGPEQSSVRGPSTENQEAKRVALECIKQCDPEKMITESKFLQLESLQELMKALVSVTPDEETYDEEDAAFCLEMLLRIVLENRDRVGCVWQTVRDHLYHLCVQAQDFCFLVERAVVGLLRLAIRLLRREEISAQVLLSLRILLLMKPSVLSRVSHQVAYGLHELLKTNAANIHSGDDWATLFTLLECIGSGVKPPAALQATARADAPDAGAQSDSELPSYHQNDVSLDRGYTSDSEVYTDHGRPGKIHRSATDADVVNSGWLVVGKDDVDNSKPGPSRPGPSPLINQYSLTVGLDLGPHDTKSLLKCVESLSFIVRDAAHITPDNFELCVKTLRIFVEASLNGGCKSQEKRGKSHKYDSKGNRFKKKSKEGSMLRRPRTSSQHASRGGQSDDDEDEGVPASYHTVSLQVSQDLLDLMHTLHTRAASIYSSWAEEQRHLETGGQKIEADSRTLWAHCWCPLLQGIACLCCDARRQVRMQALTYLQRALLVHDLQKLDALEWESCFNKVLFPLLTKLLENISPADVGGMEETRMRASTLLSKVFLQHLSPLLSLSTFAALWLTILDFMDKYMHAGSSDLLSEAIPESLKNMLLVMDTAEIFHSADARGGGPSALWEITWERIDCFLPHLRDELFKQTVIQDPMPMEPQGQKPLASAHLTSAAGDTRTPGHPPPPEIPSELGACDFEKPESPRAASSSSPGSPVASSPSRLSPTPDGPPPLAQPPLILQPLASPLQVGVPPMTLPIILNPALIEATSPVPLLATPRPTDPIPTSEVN
# UniProt P31150: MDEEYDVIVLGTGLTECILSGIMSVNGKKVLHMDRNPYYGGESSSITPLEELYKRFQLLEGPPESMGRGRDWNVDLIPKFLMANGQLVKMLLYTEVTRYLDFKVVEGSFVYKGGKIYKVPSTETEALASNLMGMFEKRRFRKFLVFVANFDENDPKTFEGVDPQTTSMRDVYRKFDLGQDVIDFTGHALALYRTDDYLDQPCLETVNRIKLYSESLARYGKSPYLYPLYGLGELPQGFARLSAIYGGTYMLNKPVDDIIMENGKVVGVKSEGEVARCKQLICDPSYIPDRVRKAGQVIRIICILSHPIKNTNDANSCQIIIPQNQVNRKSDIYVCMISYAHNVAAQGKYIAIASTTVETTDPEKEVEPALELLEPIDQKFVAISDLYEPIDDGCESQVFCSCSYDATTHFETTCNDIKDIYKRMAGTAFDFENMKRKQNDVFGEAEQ
# UniProt Q14C86: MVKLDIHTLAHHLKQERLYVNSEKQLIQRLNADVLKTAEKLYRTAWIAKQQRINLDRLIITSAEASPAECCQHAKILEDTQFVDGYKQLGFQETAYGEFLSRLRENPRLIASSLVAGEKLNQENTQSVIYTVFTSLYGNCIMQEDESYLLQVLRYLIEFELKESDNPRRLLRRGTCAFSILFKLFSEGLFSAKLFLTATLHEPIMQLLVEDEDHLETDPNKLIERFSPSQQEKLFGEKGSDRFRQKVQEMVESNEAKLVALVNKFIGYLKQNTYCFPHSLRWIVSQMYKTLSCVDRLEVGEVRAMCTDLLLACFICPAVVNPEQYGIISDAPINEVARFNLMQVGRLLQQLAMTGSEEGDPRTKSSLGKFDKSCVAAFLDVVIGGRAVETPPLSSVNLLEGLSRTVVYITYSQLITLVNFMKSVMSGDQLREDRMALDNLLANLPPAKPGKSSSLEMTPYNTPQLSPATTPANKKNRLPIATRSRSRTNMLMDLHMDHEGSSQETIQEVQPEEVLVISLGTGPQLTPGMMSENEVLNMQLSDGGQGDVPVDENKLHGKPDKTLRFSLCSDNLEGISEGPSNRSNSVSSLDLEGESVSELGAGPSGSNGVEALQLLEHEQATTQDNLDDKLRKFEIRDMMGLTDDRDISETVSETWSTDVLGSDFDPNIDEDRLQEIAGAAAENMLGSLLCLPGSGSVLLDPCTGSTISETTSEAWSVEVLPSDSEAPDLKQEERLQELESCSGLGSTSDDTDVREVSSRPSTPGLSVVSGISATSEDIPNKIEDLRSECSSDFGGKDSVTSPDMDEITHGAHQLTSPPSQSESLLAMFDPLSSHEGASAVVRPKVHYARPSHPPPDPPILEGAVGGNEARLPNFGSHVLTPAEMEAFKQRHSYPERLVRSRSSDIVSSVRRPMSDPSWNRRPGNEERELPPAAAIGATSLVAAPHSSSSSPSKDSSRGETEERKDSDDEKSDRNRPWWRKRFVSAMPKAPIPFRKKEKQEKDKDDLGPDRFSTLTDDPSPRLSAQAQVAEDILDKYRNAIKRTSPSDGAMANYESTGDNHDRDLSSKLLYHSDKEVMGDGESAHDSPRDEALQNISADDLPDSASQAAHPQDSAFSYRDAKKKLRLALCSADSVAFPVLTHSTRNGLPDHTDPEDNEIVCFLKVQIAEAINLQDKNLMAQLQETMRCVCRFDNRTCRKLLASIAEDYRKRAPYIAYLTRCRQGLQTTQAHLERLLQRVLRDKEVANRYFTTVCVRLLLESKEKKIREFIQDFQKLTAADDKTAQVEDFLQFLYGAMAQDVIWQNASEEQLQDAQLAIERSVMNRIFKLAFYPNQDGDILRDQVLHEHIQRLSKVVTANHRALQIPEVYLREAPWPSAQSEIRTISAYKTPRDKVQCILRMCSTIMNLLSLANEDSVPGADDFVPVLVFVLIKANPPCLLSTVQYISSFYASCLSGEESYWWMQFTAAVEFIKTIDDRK
# UniProt Q96F15: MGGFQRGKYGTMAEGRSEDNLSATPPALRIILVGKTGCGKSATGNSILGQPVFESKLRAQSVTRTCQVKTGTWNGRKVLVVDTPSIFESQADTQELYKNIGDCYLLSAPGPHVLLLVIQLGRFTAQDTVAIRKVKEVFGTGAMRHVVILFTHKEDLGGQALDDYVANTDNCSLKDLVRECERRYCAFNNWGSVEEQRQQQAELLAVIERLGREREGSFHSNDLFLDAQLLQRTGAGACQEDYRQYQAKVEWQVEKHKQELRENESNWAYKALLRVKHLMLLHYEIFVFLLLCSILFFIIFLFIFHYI
# UniProt P07902: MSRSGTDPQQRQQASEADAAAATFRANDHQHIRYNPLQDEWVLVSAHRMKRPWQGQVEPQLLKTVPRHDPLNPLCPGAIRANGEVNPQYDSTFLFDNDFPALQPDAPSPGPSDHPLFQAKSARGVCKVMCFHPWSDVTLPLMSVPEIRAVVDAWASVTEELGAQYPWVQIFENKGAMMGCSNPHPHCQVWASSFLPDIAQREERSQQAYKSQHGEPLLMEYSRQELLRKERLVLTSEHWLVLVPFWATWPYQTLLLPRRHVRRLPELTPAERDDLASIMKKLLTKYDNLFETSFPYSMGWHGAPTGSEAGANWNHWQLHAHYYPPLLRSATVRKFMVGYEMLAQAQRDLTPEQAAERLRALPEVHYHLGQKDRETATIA
# The list shows a part of the results.
# Compound: CC1Cc2ccccc2N1C(=O)C1CCCN(C1)C(=O)CCl (mixture of isomers) [TRIM25 ligand 11 (diastereomer mixture)]
# Experiment: probe-labelled cysteine peptide fold change vs DMSO (competition) (log2 fold change); higher = less target engagement (more negative = stronger competition)
# Conditions: THP-1, incubation time: 4 h
# 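Also: competitive chemoproteomic profiling in live THP-1 cells with an iodoacetamide desthiobiotin (IA-DTB) probe, comparing probe-labelled peptide intensities in compound-treated cells against DMSO-treated controls.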
Target,probe-labelled cysteine peptide fold change (10 µM),probe-labelled cysteine peptide fold change (50 µM)
GCLC_P48506_152_LGCPGFTLPEVKPNPVEGGASK (UniProt P48506),-0.036,0.127
GFPT1_Q06210_570_GYHYATCLEGALK (UniProt Q06210),0.0796,0.0569
GCN1_Q92616_2558_CLQNPSSDIR (UniProt Q92616),0.0855,0.113
GFM1_Q96RP9_256_AAATDHRQELIECVANSDEQLGEMFLEEK (UniProt Q96RP9),0.0399,-0.234
GCLC_P48506_295_GYVSDIDCR (UniProt P48506),0.0316,0.199
GALNT2_Q10471_539_HVGSNLCLDSR (UniProt Q10471),0.0761,0.115
GDAP2_Q9NXN4_348_ALYQTGVDNCGR (UniProt Q9NXN4),-0.0283,-0.121
GGA1_Q9UJY5_73_IQSPQEWEAIQALTVLETCMK (UniProt Q9UJY5),0.0502,-0.0197
GALNT1_Q10472_523_LTLQHVNSNQCLDK (UniProt Q10472),0.00667,-0.0307
GEMIN4_P57678_486_QVIHLILECYADLSLPGK (UniProt P57678),-0.107,0.0143
GBF1_Q92538_613_KETARPSCEIVDGTR (UniProt Q92538),-0.0436,-0.271
GDI1_P31150_335_KSDIYVCMISYAHNVAAQGK (UniProt P31150),0.0564,0.11
GAPVD1_Q14C86_293_TLSCVDRLEVGEVR (UniProt Q14C86),0.185,0.128
GIMAP5_Q96F15_238_TGAGACQEDYR (UniProt Q96F15),-0.0398,-0.105
GDI1_P31150_202_TDDYLDQPCLETVNR (UniProt P31150),-0.0491,0.103
GALT_P07902_180+187_GAMMGCSNPHPHCQVWASSFLPDIAQR (UniProt P07902),0.12,0.119
